# From the supplement of paper PMC8728848
# The other results are listed elsewhere or left out.
# Key:
# Test in all cases: glycan array binding signal (z-score within array); higher = stronger binding
# Conditions in all cases: glycan notation: IUPAC condensed, linker removed
# [1] = molecular target: GlcNAc(b1-2)Gal(b1-3)GalNAc
# Method in brief: (§1)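 Glycan array data were curated from 3228 arrays in the Consortium for Functional Glycomics database and kept only where the protein sequence was available. Glycan names were converted to IUPAC-condensed notation, and columns mapping to the same glycan were averaged. The binding signal is a within-array Z-score, averaged across arrays of the same protein sequence at different concentrations or buffers and across linkers. Negative Z-scores can be read as non-binding.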
# [2] = molecular target: GlcNAc(b1-2)Man(a1-3)[GlcNAc(b1-2)Man(a1-6)]Man(b1-4)GlcNAc(b1-4)GlcNAc
# Method in brief: as §1
# [3] = molecular target: GlcNAc(b1-2)Man(a1-3)[GlcNAc(b1-2)Man(a1-6)]Man(b1-4)GlcNAc(b1-4)[Fuc(a1-6)]GlcNAc
# Method in brief: as §1
# [4] = molecular target: GlcNAc(b1-2)Man(a1-3)[GlcNAc(b1-4)][GlcNAc(b1-2)Man(a1-6)]Man(b1-4)GlcNAc(b1-4)GlcNAc
# Method in brief: as §1
# [5] = molecular target: GlcNAc(b1-2)Man(a1-3)[GlcNAc(b1-4)][GlcNAc(b1-2)Man(a1-6)]Man(b1-4)GlcNAc(b1-4)[Fuc(a1-6)]GlcNAc
# Method in brief: as §1
# [6] = molecular target: GlcNAc(b1-2)[GlcNAc(b1-4)]Man(a1-3)[GlcNAc(b1-2)Man(a1-6)]Man(b1-4)GlcNAc(b1-4)GlcNAc
# Method in brief: as §1
# [7] = molecular target: GlcNAc(b1-2)[GlcNAc(b1-4)]Man(a1-3)[GlcNAc(b1-4)][GlcNAc(b1-2)Man(a1-6)]Man(b1-4)GlcNAc(b1-4)GlcNAc
# Method in brief: as §1
# [8] = molecular target: GlcNAc(b1-2)[GlcNAc(b1-4)]Man(a1-3)[GlcNAc(b1-4)][GlcNAc(b1-2)[GlcNAc(b1-6)]Man(a1-6)]Man(b1-4)GlcNAc(b1-4)GlcNAc
# Method in brief: as §1
# [9] = molecular target: GlcNAc(b1-2)[GlcNAc(b1-4)]Man(a1-3)[GlcNAc(b1-4)][GlcNAc(b1-2)[GlcNAc(b1-6)]Man(a1-6)]Man(b1-4)GlcNAc(b1-4)[Fuc(a1-6)]GlcNAc
# Method in brief: as §1
# [10] = molecular target: GlcNAc(b1-2)[GlcNAc(b1-6)]Man(a1-6)[GlcNAc(b1-2)Man(a1-3)]Man(b1-4)GlcNAc(b1-4)GlcNAc
# Method in brief: as §1
# [11] = molecular target: GlcNAc(b1-2)[GlcNAc(b1-6)]Man(a1-6)[GlcNAc(b1-2)Man(a1-3)]Man(b1-4)GlcNAc(b1-4)[Fuc(a1-6)]GlcNAc
# Method in brief: as §1
# [12] = molecular target: GlcNAc(b1-2)[GlcNAc(b1-6)]Man(a1-6)[GlcNAc(b1-4)][GlcNAc(b1-2)Man(a1-3)]Man(b1-4)GlcNAc(b1-4)GlcNAc
# Method in brief: as §1
# GlcNAc(b1-3)Fuc = molecular target: GlcNAc(b1-3)Fuc
# Method in brief: as §1
# GlcNAc(b1-3)Gal = molecular target: GlcNAc(b1-3)Gal
# Method in brief: as §1
# [13] = molecular target: GlcNAc(b1-3)Gal(b1-3)GalNAc
# Method in brief: as §1
# GlcNAc(b1-3)Gal(b1-4)Glc = molecular target: GlcNAc(b1-3)Gal(b1-4)Glc
# Method in brief: as §1
# [14] = molecular target: GlcNAc(b1-3)Gal(b1-4)GlcNAc
# Method in brief: as §1
# [15] = molecular target: GlcNAc(b1-3)Gal(b1-4)GlcNAc(b1-2)Man(a1-3)[GlcNAc(b1-3)Gal(b1-4)GlcNAc(b1-2)Man(a1-6)]Man(b1-4)GlcNAc(b1-4)GlcNAc
# Method in brief: as §1
# [16] = molecular target: GlcNAc(b1-3)Gal(b1-4)GlcNAc(b1-2)Man(a1-3)[GlcNAc(b1-3)Gal(b1-4)GlcNAc(b1-2)Man(a1-6)]Man(b1-4)GlcNAc(b1-4)[Fuc(a1-6)]GlcNAc
# Method in brief: as §1
# [17] = molecular target: GlcNAc(b1-3)Gal(b1-4)GlcNAc(b1-2)[GlcNAc(b1-3)Gal(b1-4)GlcNAc(b1-6)]Man(a1-6)[GlcNAc(b1-3)Gal(b1-4)GlcNAc(b1-2)Man(a1-3)]Man(b1-4)GlcNAc(b1-4)GlcNAc
# Method in brief: as §1
# [18] = molecular target: GlcNAc(b1-3)Gal(b1-4)GlcNAc(b1-3)Gal(b1-4)GlcNAc
# Method in brief: as §1
# [19] = molecular target: GlcNAc(b1-3)Gal(b1-4)GlcNAc(b1-3)Gal(b1-4)GlcNAc(b1-2)Man(a1-3)[GlcNAc(b1-3)Gal(b1-4)GlcNAc(b1-3)Gal(b1-4)GlcNAc(b1-2)Man(a1-6)]Man(b1-4)GlcNAc(b1-4)GlcNAc
# Method in brief: as §1
binder,measurement,setting,value
GS7807Q-bfa-507-19-507 (Bacteroides fragilis) (protein) ASCNKFDDLNTNPDAATKVTAPMLATKLILNITQQGSAKNFVYHSMLSKQIAWSENASDEQYNLFGRTDFDGYTILTNCQKMVDAANEGDKDSYAALAKFMKAYKLFYKSLEVGDIPYSDALKGEEGVQKPKYDTQKEVMRQVLEDLEEAYTLFSSGSDFDGDPIFGGDTENWKKTVVAFELKVLTHLCKKDTDADLKVKERFARLVSSGSLMTSNADNFQLVYSNKAGQLYPFYYTQNKHSDYLMMSSVIIDNLKKFNDYRMFYYASPAKAQTDKGIKDSEWDAYLSIDPSDSYSNISVLYGKGEFCLANLRYTRVPEGEPLMRLSYAEQNFILAEGAVRGWISEDASTYYKKGIEASMNFIADNTPDKEEYTHGRTITQEYIQEYLAQPVIQLSGDKEKDLEMILLQRYLASFLQHPYDAYYDYRRTGYPVLPINPSTNLNTEKNKIPTRWMYPEAEFSYNPDNANEAVQRQYNGSDDVNKLMWILQ,glycan array binding signal (z-score),[1],0.081
same,glycan array binding signal (z-score),[2],-0.879
same,glycan array binding signal (z-score),[3],-1.06
same,glycan array binding signal (z-score),[4],-0.785
same,glycan array binding signal (z-score),[5],-0.718
same,glycan array binding signal (z-score),[6],-0.054
same,glycan array binding signal (z-score),[7],-0.304
same,glycan array binding signal (z-score),[8],-0.365
same,glycan array binding signal (z-score),[9],-0.338
same,glycan array binding signal (z-score),[10],0.342
same,glycan array binding signal (z-score),[11],0.275
same,glycan array binding signal (z-score),[12],-0.085
same,glycan array binding signal (z-score),GlcNAc(b1-3)Fuc,0.209
same,glycan array binding signal (z-score),GlcNAc(b1-3)Gal,-0.095
same,glycan array binding signal (z-score),[13],0.348
same,glycan array binding signal (z-score),GlcNAc(b1-3)Gal(b1-4)Glc,0.157
same,glycan array binding signal (z-score),[14],-0.332
same,glycan array binding signal (z-score),[15],-0.076
same,glycan array binding signal (z-score),[16],2.43
same,glycan array binding signal (z-score),[17],1.65
same,glycan array binding signal (z-score),[18],-1.04
same,glycan array binding signal (z-score),[19],1.69

# Pulled one by one from the entries so far:
binder,measurement,setting,value
GS7807Q-bfa-507-19-507 (Bacteroides fragilis) (protein) ASCNKFDDLNTNPDAATKVTAPMLATKLILNITQQGSAKNFVYHSMLSKQIAWSENASDEQYNLFGRTDFDGYTILTNCQKMVDAANEGDKDSYAALAKFMKAYKLFYKSLEVGDIPYSDALKGEEGVQKPKYDTQKEVMRQVLEDLEEAYTLFSSGSDFDGDPIFGGDTENWKKTVVAFELKVLTHLCKKDTDADLKVKERFARLVSSGSLMTSNADNFQLVYSNKAGQLYPFYYTQNKHSDYLMMSSVIIDNLKKFNDYRMFYYASPAKAQTDKGIKDSEWDAYLSIDPSDSYSNISVLYGKGEFCLANLRYTRVPEGEPLMRLSYAEQNFILAEGAVRGWISEDASTYYKKGIEASMNFIADNTPDKEEYTHGRTITQEYIQEYLAQPVIQLSGDKEKDLEMILLQRYLASFLQHPYDAYYDYRRTGYPVLPINPSTNLNTEKNKIPTRWMYPEAEFSYNPDNANEAVQRQYNGSDDVNKLMWILQ,glycan array binding signal (z-score),[4],-0.785
same,glycan array binding signal (z-score),[6],-0.054
